Laboratory results taken from patent US20040081624A1, “Liquid aerosol formulations and aerosol generating devices and methods for generating aerosols” (Chrysalis Technologies Incorporated, priority 2002, published 2004).
At least one structure is not confirmed: it was looked up by name or label, or the drawing left a doubt.

Experiments:
[1] = Observation of breakdown products / degradation during aerosol generation; format: physicochemical; settings: Example 2 tests, ethanol carrier
Excerpt: Clogging of the capillary size passage of the aerosol generating device was not observed during these tests.

[2] = Recovery of medicament from generated aerosol (cascade impactor stages, elbow, filter); format: physicochemical; settings: carrier including ethanol; summary of tests

In the case of CCCC1O[C@@H]2C[C@H]3[C@@H]4CCC5=CC(=O)C=C[C@]5(C)[C@H]4[C@@H](O)C[C@]3(C)[C@]2(C(=O)CO)O1 (some centres unmarked) [budesonide], the “breakdown products during aerosol generation” value [1] was “no breakdown products of budesonide were observed” and the recoveries of aerosol [2] was “up to 100%”.
